In paper PMC12323131, “CSRP2 promotes the glioblastoma mesenchymal phenotype via p130Cas-mediated NF-κB and MAPK pathways” (Journal of Experimental & Clinical Cancer Research : CR, 2025):
These are yes or no findings as the source states them, for the method shown. In cells and extracts the contact can be indirect. Some binding calls cover weakened binding; strength is not graded here. For part of these data: Where a sequence is shown, tags or fusion partners need not be part of it.

T1: Cysteine-rich protein 2 (CSRP2), endogenous (human (endogenous in U87-MG, U251 and GBM patient tissue)) (UniProt Q16527)
T1 sequence: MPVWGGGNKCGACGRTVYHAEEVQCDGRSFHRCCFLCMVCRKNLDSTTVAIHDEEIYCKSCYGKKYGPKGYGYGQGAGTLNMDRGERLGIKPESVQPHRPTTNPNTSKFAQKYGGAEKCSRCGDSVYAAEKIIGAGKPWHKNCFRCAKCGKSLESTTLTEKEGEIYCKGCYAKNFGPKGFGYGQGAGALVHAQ

T2: CSRP2, stably overexpressed in GBM cells (human) (UniProt Q16527)
T2 sequence: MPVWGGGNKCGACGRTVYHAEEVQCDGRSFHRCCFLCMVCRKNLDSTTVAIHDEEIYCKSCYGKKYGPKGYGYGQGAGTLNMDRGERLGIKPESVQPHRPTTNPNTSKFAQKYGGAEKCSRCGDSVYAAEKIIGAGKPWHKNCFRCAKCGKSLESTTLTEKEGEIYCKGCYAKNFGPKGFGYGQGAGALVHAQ

T3: CSRP2-Flag (human) (UniProt Q16527)
T3 sequence: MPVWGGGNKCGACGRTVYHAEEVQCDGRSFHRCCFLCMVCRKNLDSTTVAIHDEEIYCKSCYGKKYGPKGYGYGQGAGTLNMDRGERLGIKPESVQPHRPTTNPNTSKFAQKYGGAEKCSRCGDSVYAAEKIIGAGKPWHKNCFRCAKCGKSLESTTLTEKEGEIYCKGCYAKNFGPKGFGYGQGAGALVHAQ


Tests used:
[1] = biological target: T1, Cysteine-rich protein 2 (CSRP2), endogenous (human (endogenous in U87-MG, U251 and GBM patient tissue)); assay: co-IP; U87-MG and U251 cell lysates or GBM tissue lysates; IP with an anti-CSRP2 antibody and IgG, protein A/G MagBeads, 4 °C overnight; blot with anti-CSRP2 and anti-p130Cas
[2] = biological target: T2, CSRP2, stably overexpressed in GBM cells (human); assay: co-IP; U87-MG and U251 cells with stable CSRP2 overexpression, treated with 0.5 µM mitoxantrone (MTO) for 48 h; lysates IP with anti-CSRP2 and anti-p130Cas antibodies and IgG; blot with anti-CSRP2 and anti-p130Cas
CSRP2-Flag (human) = biological target: T3, CSRP2-Flag (human); assay: co-IP; HEK 293T cells co-transfected with CSRP2-Flag and p130Cas-HA; lysates IP with anti-Flag and anti-HA antibodies and IgG; blot with anti-Flag and anti-HA

| binding [1] | binding (CSRP2-Flag (human)) | Binder | binding [2] |
| --- | --- | --- | --- |
| binds |  | p130Cas, endogenous (protein, UniProt P56945 1-870) MNHLNVLAKALYDNVAESPDELSFRKGDIMTVLEQDTQGLDGWWLCSLHGRQGIVPGNRLKILVGMYDKKPAGPGPGPPATPAQPQPGLHAPAPPASQYTPMLPNTYQPQPDSVYLVPTPSKAQQGLYQVPGPSPQFQSPPAKQTSTFSKQTPHHPFPSPATDLYQVPPGPGGPAQDIYQVPPSAGMGHDIYQVPPSMDTRSWEGTKPPAKVVVPTRVGQGYVYEAAQPEQDEYDIPRHLLAPGPQDIYDVPPVRGLLPSQYGQEVYDTPPMAVKGPNGRDPLLEVYDVPPSVEKGLPPSNHHAVYDVPPSVSKDVPDGPLLREETYDVPPAFAKAKPFDPARTPLVLAAPPPDSPPAEDVYDVPPPAPDLYDVPPGLRRPGPGTLYDVPRERVLPPEVADGGVVDSGVYAVPPPAEREAPAEGKRLSASSTGSTRSSQSASSLEVAGPGREPLELEVAVEALARLQQGVSATVAHLLDLAGSAGATGSWRSPSEPQEPLVQDLQAAVAAVQSAVHELLEFARSAVGNAAHTSDRALHAKLSRQLQKMEDVHQTLVAHGQALDAGRGGSGATLEDLDRLVACSRAVPEDAKQLASFLHGNASLLFRRTKATAPGPEGGGTLHPNPTDKTSSIQSRPLPSPPKFTSQDSPDGQYENSEGGWMEDYDYVHLQGKEEFEKTQKELLEKGSITRQGKSQLELQQLKQFERLEQEVSRPIDHDLANWTPAQPLAPGRTGGLGPSDRQLLLFYLEQCEANLTTLTNAVDAFFTAVATNQPPKIFVAHSKFVILSAHKLVFIGDTLSRQAKAADVRSQVTHYSNLLCDLLRGIVATTKAAALQYPSPSAAQDMVERVKELGHSTQQFRRVLGQLAAA | binds |
|  | binds | p130Cas-HA (protein, UniProt P56945 1-870) MNHLNVLAKALYDNVAESPDELSFRKGDIMTVLEQDTQGLDGWWLCSLHGRQGIVPGNRLKILVGMYDKKPAGPGPGPPATPAQPQPGLHAPAPPASQYTPMLPNTYQPQPDSVYLVPTPSKAQQGLYQVPGPSPQFQSPPAKQTSTFSKQTPHHPFPSPATDLYQVPPGPGGPAQDIYQVPPSAGMGHDIYQVPPSMDTRSWEGTKPPAKVVVPTRVGQGYVYEAAQPEQDEYDIPRHLLAPGPQDIYDVPPVRGLLPSQYGQEVYDTPPMAVKGPNGRDPLLEVYDVPPSVEKGLPPSNHHAVYDVPPSVSKDVPDGPLLREETYDVPPAFAKAKPFDPARTPLVLAAPPPDSPPAEDVYDVPPPAPDLYDVPPGLRRPGPGTLYDVPRERVLPPEVADGGVVDSGVYAVPPPAEREAPAEGKRLSASSTGSTRSSQSASSLEVAGPGREPLELEVAVEALARLQQGVSATVAHLLDLAGSAGATGSWRSPSEPQEPLVQDLQAAVAAVQSAVHELLEFARSAVGNAAHTSDRALHAKLSRQLQKMEDVHQTLVAHGQALDAGRGGSGATLEDLDRLVACSRAVPEDAKQLASFLHGNASLLFRRTKATAPGPEGGGTLHPNPTDKTSSIQSRPLPSPPKFTSQDSPDGQYENSEGGWMEDYDYVHLQGKEEFEKTQKELLEKGSITRQGKSQLELQQLKQFERLEQEVSRPIDHDLANWTPAQPLAPGRTGGLGPSDRQLLLFYLEQCEANLTTLTNAVDAFFTAVATNQPPKIFVAHSKFVILSAHKLVFIGDTLSRQAKAADVRSQVTHYSNLLCDLLRGIVATTKAAALQYPSPSAAQDMVERVKELGHSTQQFRRVLGQLAAA |  |
